log2 fold change data for nine targets are collected here from the supplement of paper PMC10849652.

The chains behind the UniProt entries cited, without tags or fusion partners. Where a name states a change or a piece, a line headed by the entry shows the natural chain unless it says otherwise.
UniProt Q9Y6R4: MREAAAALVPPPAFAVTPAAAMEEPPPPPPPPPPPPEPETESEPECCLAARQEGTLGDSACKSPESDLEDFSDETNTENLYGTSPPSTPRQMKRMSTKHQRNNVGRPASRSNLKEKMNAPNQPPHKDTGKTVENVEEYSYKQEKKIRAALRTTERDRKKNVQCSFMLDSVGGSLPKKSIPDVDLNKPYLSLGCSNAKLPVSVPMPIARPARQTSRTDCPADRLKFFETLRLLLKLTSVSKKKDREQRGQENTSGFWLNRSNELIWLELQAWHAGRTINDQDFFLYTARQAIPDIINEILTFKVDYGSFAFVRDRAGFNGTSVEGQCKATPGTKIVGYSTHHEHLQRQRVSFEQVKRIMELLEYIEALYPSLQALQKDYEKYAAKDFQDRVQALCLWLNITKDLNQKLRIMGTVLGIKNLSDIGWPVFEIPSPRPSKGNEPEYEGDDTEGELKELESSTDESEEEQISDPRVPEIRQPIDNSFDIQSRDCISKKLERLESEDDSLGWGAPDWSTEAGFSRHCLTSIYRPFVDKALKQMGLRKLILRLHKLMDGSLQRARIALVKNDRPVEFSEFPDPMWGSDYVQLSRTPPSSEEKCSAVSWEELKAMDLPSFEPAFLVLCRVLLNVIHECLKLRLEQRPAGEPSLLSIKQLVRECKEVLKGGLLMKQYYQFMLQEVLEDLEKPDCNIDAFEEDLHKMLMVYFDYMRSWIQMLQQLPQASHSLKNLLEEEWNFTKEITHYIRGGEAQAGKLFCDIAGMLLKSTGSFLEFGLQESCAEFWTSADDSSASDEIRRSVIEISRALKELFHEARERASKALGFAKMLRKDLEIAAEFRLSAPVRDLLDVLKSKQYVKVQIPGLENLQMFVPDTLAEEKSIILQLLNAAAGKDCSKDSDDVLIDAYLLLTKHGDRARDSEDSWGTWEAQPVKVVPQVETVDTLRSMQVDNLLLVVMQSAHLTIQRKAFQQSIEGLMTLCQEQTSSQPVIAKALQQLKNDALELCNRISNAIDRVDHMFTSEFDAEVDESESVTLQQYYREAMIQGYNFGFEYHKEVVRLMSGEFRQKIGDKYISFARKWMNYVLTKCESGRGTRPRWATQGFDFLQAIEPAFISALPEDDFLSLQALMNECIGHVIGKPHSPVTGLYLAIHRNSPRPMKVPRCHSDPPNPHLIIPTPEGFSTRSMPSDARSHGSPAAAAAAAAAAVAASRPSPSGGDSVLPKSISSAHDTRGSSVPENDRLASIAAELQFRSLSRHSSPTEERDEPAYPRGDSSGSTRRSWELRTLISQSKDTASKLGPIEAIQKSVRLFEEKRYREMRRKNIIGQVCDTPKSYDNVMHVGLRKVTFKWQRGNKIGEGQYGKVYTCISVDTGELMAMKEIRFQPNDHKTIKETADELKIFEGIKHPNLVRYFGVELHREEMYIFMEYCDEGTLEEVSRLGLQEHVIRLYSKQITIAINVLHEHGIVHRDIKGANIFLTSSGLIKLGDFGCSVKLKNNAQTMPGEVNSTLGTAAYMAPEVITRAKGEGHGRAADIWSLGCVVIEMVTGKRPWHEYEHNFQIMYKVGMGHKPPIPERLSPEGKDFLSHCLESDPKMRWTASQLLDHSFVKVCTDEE
UniProt Q3KQU3: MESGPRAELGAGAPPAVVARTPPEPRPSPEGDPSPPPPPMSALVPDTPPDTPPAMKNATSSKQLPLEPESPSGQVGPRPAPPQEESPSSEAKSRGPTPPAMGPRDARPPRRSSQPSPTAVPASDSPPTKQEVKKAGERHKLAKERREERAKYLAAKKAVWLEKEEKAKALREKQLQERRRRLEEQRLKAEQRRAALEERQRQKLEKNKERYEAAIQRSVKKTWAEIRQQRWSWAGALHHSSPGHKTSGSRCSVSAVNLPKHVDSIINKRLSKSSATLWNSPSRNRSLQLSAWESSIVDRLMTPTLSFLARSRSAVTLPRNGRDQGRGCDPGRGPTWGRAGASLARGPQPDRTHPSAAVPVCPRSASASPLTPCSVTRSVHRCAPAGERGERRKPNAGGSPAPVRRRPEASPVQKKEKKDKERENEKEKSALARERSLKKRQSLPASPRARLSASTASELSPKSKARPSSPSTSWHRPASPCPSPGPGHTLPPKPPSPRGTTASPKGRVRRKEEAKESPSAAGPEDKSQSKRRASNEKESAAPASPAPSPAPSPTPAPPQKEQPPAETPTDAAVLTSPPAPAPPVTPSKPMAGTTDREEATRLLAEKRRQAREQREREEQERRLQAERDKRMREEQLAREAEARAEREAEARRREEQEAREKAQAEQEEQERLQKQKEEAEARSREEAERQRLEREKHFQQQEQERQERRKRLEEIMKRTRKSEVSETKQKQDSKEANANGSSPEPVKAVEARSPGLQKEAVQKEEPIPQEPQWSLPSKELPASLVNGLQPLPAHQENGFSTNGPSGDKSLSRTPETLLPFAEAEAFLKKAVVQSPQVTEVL
UniProt Q16659, whole entry, looked up: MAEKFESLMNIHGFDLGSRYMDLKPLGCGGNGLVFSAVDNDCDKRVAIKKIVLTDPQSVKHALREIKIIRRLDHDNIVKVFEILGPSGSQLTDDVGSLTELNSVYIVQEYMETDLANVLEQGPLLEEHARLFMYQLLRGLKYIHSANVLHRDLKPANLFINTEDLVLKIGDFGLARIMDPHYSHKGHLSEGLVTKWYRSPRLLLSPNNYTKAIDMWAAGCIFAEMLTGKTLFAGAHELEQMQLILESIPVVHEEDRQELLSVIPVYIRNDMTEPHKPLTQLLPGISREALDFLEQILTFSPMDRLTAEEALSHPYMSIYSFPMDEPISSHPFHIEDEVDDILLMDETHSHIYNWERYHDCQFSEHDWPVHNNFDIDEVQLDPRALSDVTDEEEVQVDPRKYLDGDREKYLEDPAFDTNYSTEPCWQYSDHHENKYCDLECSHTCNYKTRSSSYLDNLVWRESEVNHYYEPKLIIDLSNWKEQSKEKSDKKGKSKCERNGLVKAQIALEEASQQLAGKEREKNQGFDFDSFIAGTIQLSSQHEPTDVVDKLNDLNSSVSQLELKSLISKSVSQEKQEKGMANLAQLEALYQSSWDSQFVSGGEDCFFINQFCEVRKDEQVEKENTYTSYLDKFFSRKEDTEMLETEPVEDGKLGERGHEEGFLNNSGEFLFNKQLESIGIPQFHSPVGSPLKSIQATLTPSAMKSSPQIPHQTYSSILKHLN
UniProt Q96GX5: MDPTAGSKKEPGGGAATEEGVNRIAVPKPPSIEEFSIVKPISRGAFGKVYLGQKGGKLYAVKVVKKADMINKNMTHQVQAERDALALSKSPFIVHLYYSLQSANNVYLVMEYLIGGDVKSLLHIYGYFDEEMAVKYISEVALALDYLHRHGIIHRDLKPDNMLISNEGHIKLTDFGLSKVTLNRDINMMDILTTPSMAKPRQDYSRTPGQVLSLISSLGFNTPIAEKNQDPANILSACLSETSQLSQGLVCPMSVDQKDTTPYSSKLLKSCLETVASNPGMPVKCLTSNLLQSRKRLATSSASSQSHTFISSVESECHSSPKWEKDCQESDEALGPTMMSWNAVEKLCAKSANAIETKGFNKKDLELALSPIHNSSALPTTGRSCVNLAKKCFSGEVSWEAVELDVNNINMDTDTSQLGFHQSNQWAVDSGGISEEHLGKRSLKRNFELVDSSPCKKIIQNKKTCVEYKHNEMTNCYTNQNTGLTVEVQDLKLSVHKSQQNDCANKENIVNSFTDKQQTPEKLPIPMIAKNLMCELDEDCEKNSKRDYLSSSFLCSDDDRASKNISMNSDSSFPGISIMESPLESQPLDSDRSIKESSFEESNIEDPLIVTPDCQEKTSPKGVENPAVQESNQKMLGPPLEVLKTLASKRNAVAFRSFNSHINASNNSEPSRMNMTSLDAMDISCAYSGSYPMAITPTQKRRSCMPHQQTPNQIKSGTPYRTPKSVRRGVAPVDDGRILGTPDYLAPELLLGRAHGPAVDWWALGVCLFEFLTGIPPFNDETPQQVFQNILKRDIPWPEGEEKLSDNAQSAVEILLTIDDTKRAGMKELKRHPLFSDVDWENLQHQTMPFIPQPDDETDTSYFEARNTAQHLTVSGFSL
UniProt P28482, whole entry, looked up: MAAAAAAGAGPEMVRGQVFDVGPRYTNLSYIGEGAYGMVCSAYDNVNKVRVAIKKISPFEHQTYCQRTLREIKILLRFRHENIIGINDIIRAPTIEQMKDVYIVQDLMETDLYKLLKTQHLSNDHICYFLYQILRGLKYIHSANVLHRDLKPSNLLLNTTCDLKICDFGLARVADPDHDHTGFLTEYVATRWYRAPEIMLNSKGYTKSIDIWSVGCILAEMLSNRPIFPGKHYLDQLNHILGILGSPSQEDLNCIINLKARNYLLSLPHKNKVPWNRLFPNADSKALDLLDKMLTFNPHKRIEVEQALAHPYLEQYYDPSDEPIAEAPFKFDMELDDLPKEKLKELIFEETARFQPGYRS
UniProt P27816: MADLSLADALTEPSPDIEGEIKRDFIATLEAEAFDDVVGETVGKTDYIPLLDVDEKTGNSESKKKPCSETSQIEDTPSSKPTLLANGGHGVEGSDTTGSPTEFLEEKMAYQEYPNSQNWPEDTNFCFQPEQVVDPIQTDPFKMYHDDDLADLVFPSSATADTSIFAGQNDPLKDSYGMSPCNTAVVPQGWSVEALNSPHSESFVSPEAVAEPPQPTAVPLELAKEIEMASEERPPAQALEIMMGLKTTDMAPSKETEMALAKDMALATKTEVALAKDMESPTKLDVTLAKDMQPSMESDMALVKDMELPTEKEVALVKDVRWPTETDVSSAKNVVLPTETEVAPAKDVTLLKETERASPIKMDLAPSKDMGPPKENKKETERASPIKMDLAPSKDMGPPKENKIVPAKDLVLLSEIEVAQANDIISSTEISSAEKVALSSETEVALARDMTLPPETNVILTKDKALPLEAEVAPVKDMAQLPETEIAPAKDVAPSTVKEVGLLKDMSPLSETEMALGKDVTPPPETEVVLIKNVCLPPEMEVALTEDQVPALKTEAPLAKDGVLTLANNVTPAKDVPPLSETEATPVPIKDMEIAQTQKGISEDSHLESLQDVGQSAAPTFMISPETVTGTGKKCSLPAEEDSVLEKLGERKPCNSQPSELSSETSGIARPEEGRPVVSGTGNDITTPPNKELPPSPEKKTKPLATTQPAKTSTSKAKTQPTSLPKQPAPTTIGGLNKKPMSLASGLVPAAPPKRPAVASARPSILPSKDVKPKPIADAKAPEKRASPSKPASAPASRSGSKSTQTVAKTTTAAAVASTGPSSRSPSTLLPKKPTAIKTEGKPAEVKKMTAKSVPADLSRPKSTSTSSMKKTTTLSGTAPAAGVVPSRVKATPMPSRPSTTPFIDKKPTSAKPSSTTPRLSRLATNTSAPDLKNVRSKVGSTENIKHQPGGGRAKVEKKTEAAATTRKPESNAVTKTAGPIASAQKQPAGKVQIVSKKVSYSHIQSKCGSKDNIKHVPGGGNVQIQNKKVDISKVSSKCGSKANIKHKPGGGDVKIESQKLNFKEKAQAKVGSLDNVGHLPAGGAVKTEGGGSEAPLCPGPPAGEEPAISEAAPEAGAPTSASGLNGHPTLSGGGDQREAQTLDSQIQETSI
UniProt Q9UNF1: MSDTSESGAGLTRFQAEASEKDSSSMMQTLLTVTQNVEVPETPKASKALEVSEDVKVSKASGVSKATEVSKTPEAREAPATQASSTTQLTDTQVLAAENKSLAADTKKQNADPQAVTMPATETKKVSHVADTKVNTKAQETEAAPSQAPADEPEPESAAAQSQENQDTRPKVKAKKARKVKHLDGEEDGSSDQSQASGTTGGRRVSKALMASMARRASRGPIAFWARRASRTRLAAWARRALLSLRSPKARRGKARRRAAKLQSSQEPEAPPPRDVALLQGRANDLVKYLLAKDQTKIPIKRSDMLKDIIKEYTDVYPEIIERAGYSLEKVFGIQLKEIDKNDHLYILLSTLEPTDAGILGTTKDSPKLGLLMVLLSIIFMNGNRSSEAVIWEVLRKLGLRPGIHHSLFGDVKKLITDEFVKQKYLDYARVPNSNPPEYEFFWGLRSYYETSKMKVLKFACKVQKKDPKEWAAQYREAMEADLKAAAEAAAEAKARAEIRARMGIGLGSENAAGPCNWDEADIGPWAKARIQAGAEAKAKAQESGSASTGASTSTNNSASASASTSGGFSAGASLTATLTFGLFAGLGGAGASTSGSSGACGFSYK
UniProt Q8WWC4: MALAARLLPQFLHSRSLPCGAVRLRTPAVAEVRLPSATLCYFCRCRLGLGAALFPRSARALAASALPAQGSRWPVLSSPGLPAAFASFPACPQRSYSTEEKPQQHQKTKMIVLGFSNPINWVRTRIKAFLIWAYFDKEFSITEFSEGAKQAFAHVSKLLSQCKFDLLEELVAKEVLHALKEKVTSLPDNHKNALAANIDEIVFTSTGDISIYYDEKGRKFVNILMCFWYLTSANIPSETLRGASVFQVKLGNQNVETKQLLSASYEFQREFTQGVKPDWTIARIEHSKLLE

Holding throughout (experiment): log2 fold change, soluble protein after heating vs DMSO (PISA); higher = thermal stabilisation; K562 lysate, 10 uM; active = over 0.2 and 3.5 SD of the protein, either way, in both replicates (recomputed)
Compound in assay [1]: NCC(=O)Nc1ccc(-n2nc(C(F)(F)F)cc2-c2ccc3c(ccc4ccccc43)c2)cc1
The method in brief:
(§1)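 Dounce homogenisation of K562 pellets in PBS pH 7.4 with 1 mM MgCl2 produced a crude extract, used at 1 mg/mL protein. Exposure to 10 μM compound lasted 30 min, and aliquots were then heated for 3 min across 48°C-58°C, pooled and brought to 0.5% NP-40 at 4°C. The supernatant after 21,000xg for 90 min was quantified by TMTpro 16plex LC-MS/MS with channel sums equalised. Duplicate values are given as log-two fold change in thermal stability relative to solvent controls.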

Compound in another assay: O=C(CCCCCCC(=O)Nc1ccccc1)NO [vorinostat]
A digest of the protocol:
as §1

Compound in the next assay: O=C(O)c1ccc2c(c1)nc(Nc1cccc(Cl)c1)c1ccncc12 [silmitasertib]
A digest of the protocol:
as §1

Compound in assay [2]: O=C1NC(=O)C(c2cnc3ccccn23)=C1c1cn2c3c(cc(F)cc13)CN(C(=O)N1CCCCC1)CC2
A digest of the protocol:
as §1

Compound in another assay: c1cn2cc(-c3ccc4cn[nH]c4c3)nc(Nc3ccc(N4CCOCC4)cc3)c2n1 [entospletinib]
The method in brief:
as §1

Some of the results follow.

For the target MAP3K4 (UniProt Q9Y6R4), the log2 fold change in assay [1] was inactive: -0.025; with vorinostat, active: -0.524; in the assay with silmitasertib, inactive: 0.229; in assay [2] it was inactive: -0.025; with entospletinib it was inactive: -0.045.
As to MAP7D1 (UniProt Q3KQU3), the log2 fold change in assay [1] is inactive: 0.083; in the assay with vorinostat it was inactive: -0.108; with silmitasertib, inactive: 0.007; in assay [2], inactive: -0.028; with entospletinib, inactive: -0.014.
Turning to MARK3 (UniProt P27448), the log2 fold change in assay [1] was inactive: -0.035; with vorinostat, inactive: -0.069; with silmitasertib, active: 0.445; in assay [2] it was inactive: 0.035; with entospletinib it was inactive: 0.036.
Taken in the same sequence, the figures for MAPK6 (UniProt Q16659) were inactive: -0.04, inactive: -0.033, inactive: 0.033, inactive: 0.035 and inactive: 0.024.
Taken in the same sequence, the figures for MASTL (UniProt Q96GX5) were inactive: 0.169, inactive: -0.206, inactive: 0.029, inactive: 0 and inactive: -0.025.
Consider MAPK1 (UniProt P28482), for which the log2 fold change in assay [1] is inactive: -0.027; with vorinostat, inactive: 0.039; with silmitasertib, inactive: 0.042; in assay [2], inactive: -0.005; with entospletinib, inactive: -0.039.
Taken in the same sequence, the figures for MAP4 isoform 5 (UniProt P27816) were inactive: 0.001, inactive: 0.359, inactive: 0.074, inactive: 0.087 and inactive: 0.063.
The like results for MAGED2 (UniProt Q9UNF1) were, in that order, inactive: 0.13, inactive: -0.03, inactive: -0.007, inactive: -0.035 and inactive: 0.011.
Turning to MAIP1 (UniProt Q8WWC4), the log2 fold change in assay [1] was inactive: -0.012; with vorinostat, inactive: 0.002; in the assay with silmitasertib, inactive: 0.004; in assay [2], inactive: -0.044; with entospletinib, inactive: 0.008.
